Measurements reported in PubChem BioAssay AID1224830 (NIAID, 2016).
The deposit covers about 18,000 reagents; below is a part drawn at random. Over the whole deposit, about 2,900 (16%) got an active call. 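Calls are made per well; low scores hint the gene aids the LPS response, high scores that it dampens it.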 Repeated entries: four replicate wells of each siRNA pool. No sequences are given here.

Screen: 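Host factors that control LPS-induced TNF expression in human macrophages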 (primary screen)
Cells: human THP-1 monocytic leukaemia cells, TNF dual-luciferase reporter clone, PMA-differentiated to macrophage-like cells
Reagent: siRNA pool against human genes, 50 nM
Timing: LPS for 4 h, given about 3 days after siRNA transfection
Conditions: bacterial LPS (TLR4 ligand), 10 ng/ml
Read-out: 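TNF firefly reporter luminescence divided by renilla, normalised to the plate median, then turned into a robust z-score for each replicate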
Scale: TNF reporter robust z-score: higher = stronger TNF reporter response to LPS
Hit rule: 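a well is active when its z-score exceeds 2.8 or falls below -1.5; control wells carry no call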

Knock-down of CTF1 gave: TNF reporter robust z-score 0.94; inactive.
With knock-down of CTF1, the screen gave TNF reporter robust z-score 0.39; inactive.
Depletion of CTF1 resulted in: TNF reporter robust z-score -0.18; inactive.
For CTF1, the values are TNF reporter robust z-score -0.47; inactive.
GTSF1L gave TNF reporter robust z-score -0.93; inactive.
Silencing of GTSF1L resulted in: TNF reporter robust z-score -0.69; inactive.
For GTSF1L, the values are TNF reporter robust z-score -0.01; inactive.
Against GTSF1L, the values are TNF reporter robust z-score 0.31; inactive.
After knock-down of PLTP, the screen gave TNF reporter robust z-score 0.03; inactive.
Knock-down of PLTP resulted in: TNF reporter robust z-score 0.41; inactive.
PLTP gave TNF reporter robust z-score -0.24; inactive.
For PLTP, the entry reads TNF reporter robust z-score 1.33; inactive.
Depletion of OR1A2 gave: TNF reporter robust z-score 1.45; inactive.
Depletion of OR1A2 gave: TNF reporter robust z-score 2.48; inactive.
After knock-down of OR1A2, the screen gave TNF reporter robust z-score 0.53; inactive.
For OR1A2, the entry reads TNF reporter robust z-score 2.55; inactive.
For TMEM42, the values are TNF reporter robust z-score -1.05; inactive.
Against TMEM42 the deposit lists TNF reporter robust z-score -1.3; inactive.
After knock-down of TMEM42 the results were TNF reporter robust z-score -1.32; inactive.
For TMEM42 the deposit lists TNF reporter robust z-score -0.85; inactive.

In a second layout: 4 of the entries above.
gene | TNF reporter robust z-score | outcome
GTSF1L | -0.69 | inactive
GTSF1L | -0.01 | inactive
GTSF1L | 0.31 | inactive
PLTP | 0.03 | inactive

The listing continues.
GNGT2 scored TNF reporter robust z-score -0.52; inactive.
Knock-down of GNGT2 resulted in: TNF reporter robust z-score -0.17; inactive.
Silencing of GNGT2 resulted in: TNF reporter robust z-score 0.04; inactive.
GNGT2 gave TNF reporter robust z-score 1.04; inactive.
PAPSS1 showed TNF reporter robust z-score 0.44; inactive.
Silencing of PAPSS1 came out at: TNF reporter robust z-score 0.08; inactive.
For PAPSS1, the entry reads TNF reporter robust z-score 0.11; inactive.
Knock-down of PAPSS1 came out at: TNF reporter robust z-score 1.2; inactive.
Silencing of DPYSL3 gave: TNF reporter robust z-score 0.88; inactive.
Knock-down of DPYSL3 resulted in: TNF reporter robust z-score 0.33; inactive.
Silencing of DPYSL3 came out at: TNF reporter robust z-score -0.16; inactive.
With knock-down of DPYSL3, the record shows TNF reporter robust z-score 2.06; inactive.
